The target of this experiment is HA-HuRΔB (hinge region deleted mutant of HuR) (human). The experiment is described as follows: co-IP.

1 molecule from paper doi:10.1101/2023.09.08.556844 can be followed below.

Results are given in words; binding and its absence hold for the method and conditions named. Binding seen in cells or lysates may run through a third protein. Binding calls can cover weak binding; strength is not graded here.

B1: Syntaxin 5, endogenous in C6 cells (protein, UniProt Q08851 1-355)
chain: MIPRKRYGSKNTDQGVYLGLSKTQVLSPATAINSSSDIAPLPTPVALVPSPPDTMSCRDRTQEFLSACKSLQSRQNGIQTNKPALHATRQCSEFTLMARRIGKDLSNTFAKLEKLTILAKRKSLFDDKAVEIEELTYIIKQDINSLNKQIAQLQDFVRAKGSQSGRHLQTHSNTIVVSLQSKLASMSNDFKSVLEVRTENLKQQRNRREQFSRAPVSALPLAPNNLGGGPIVLGGESRASRDVAIDMMDPRTSQQLQLIDEQDSYIQSRADTMQNIESTIVELGSIFQQLAHMVKEQEETIQRIDENVLGAQLDVEAAHSEILKYFQSVTSNRWLMVKIFLILIVFFIIFVVFLA
On to B1, for which the binding result is given as “binds”.
